# Measurements as given in PubChem BioAssay AID901 (National Center for Advancing Translational Sciences (NCATS), 2007).
# Some of the results follow. Shown are side measurements of this screen, not its main read-out; they come without a call. Most of these compounds were active or inconclusive in the main read-out, so they are no random draw. The note in brackets gives the kind of curve behind each potency; many fits are weak.
# Experiment: qHTS Assay for Identifying the Cell-Membrane Permeable IMPase Inhibitors
# Conditions: CHO-M1 cells, IP1 accumulation, HTRF TR-FRET ratio; measured here: donor channel 620 nm AC50
row,SMILES,AC50
1,CCCCN1C(=O)NC2NC(=O)NC21 (configuration not stated),"1.26 µM [falling, full curve]"
2,CCN1CCN(c2ccc(NS(=O)(=O)c3c(C)nc4sccn4c3=O)cc2Cl)CC1,"0.251 µM [falling, partial curve]"
3,COc1ccc(CNC(=S)Nc2ccccc2C)cc1,"0.0631 µM [falling, full curve, poor fit]"
4,Cc1sc2nc3n(c(=O)c2c1C)CCCCC3,"0.00501 µM [falling, full curve]"
5,COc1nc(-c2ccccc2)ccc1-c1noc(C)n1,"20 µM [falling, single point]"
6,COc1ccc(-c2nn(C)c(=O)c3ccccc23)cc1NC(=O)COc1ccc(C)cc1,"0.794 µM [falling, full curve, poor fit]"
7,CC1=NN(C(N)=S)C(=O)C1N=Nc1ccccc1C (configuration not stated),"1 µM [falling, full curve]"
8,CCOc1cc(N2CCOCC2)c(OCC)cc1NC(=O)c1ccc(=O)n(Cc2ccccc2)n1,"3.16 µM [falling, partial curve]"
9,CC(Oc1ccc(Cl)cc1)C(=O)OCC(=O)Nc1ncc(Cl)cc1Cl (configuration not stated),"7.94 µM [falling, partial curve, poor fit]"
10,c1ccc(-n2ncc3c(N4CCN(c5ccccn5)CC4)nc(N4CCOCC4)nc32)cc1,"0.0398 µM [rising, full curve, poor fit]"
11,CCCOC(=O)C1C2C=CC3(CN(c4ccc(Cl)c(F)c4)C(=O)C13)O2 (configuration not stated),"1 µM [falling, full curve, poor fit]"
12,CCOc1ccc2nc(SCC(=O)NC(=O)NCc3ccco3)[nH]c2c1,"0.02 µM [rising, full curve, poor fit]"
13,COC(=O)C1=C(C)N=C2SC(C#N)=C(N)N2C1c1cc(OC)c(OC)c(OC)c1 (configuration not stated),"5.01 µM [rising, single point]"
14,CC(Oc1cccc(F)c1)C(=O)/C=C\N(C)C (configuration not stated),"31.6 µM [falling, single point]"
15,Cc1ccc(NC(=O)c2ccc(OC(=S)N3CCOCC3)cc2)cc1,"0.0316 µM [falling, full curve, poor fit]"
16,CC(C)(C)C1CCc2onc(C(=O)Nc3cccc(O)c3)c2C1 (configuration not stated),"31.6 µM [falling, single point]"
17,CCOC(=O)CSc1nc(CC)nc2ccccc12,"12.6 µM [rising, partial curve]"
18,CC(=O)Nc1cc(S(=O)(=O)Nc2cccc(C)c2)c(C)cc1C,"31.6 µM [falling, single point]"
19,Cc1cc(N2C(=O)C(=O)/C(=C(/O)c3ccc(Cl)cc3)C2c2cccc(Br)c2)no1 (configuration not stated),"12.6 µM [rising, single point]"
20,COc1ccc(OC)c(NS(=O)(=O)c2ccc(Cl)s2)c1,"25.1 µM [falling, single point]"
21,COc1ccccc1NC(=O)CCNC(=O)Cn1ccc2ccccc2c1=O,"31.6 µM [falling, single point]"
22,Nc1scc2c(C(=O)N/N=C/c3ccc(Cl)cc3)nn(-c3ccccc3)c(=O)c12,"20 µM [falling, partial curve, poor fit]"
23,CCCCCCn1c(CN2CCN(C(=O)c3ccco3)CC2)nc2c1c(=O)n(C)c(=O)n2C,"31.6 µM [rising, single point]"

# Six records picked at random from those above, as already listed:
row,SMILES,AC50
4,Cc1sc2nc3n(c(=O)c2c1C)CCCCC3,"0.00501 µM [falling, full curve]"
18,CC(=O)Nc1cc(S(=O)(=O)Nc2cccc(C)c2)c(C)cc1C,"31.6 µM [falling, single point]"
8,CCOc1cc(N2CCOCC2)c(OCC)cc1NC(=O)c1ccc(=O)n(Cc2ccccc2)n1,"3.16 µM [falling, partial curve]"
1,CCCCN1C(=O)NC2NC(=O)NC21 (configuration not stated),"1.26 µM [falling, full curve]"
7,CC1=NN(C(N)=S)C(=O)C1N=Nc1ccccc1C (configuration not stated),"1 µM [falling, full curve]"
12,CCOc1ccc2nc(SCC(=O)NC(=O)NCc3ccco3)[nH]c2c1,"0.02 µM [rising, full curve, poor fit]"

# The listing continues:

row,SMILES,AC50
1,Cc1ccc(OCC(O)CN2C(=O)NC(C)(C)C2=O)cc1 (configuration not stated),"31.6 µM [falling, single point]"
2,CCOC(=O)/C(C(C)=O)=C1\OC(=O)c2ccccc21,"0.00316 µM [rising, full curve, poor fit]"
3,COc1ccc(OC)c(-n2c(-c3cc(-c4ccc(F)cc4)n[nH]3)n[nH]c2=S)c1,"6.31 µM [rising, full curve, poor fit]"
4,CCOC(=O)CSC1=C(C#N)C(c2ccc(OC)cc2)C2=C(CC(C)(C)CC2=O)N1 (configuration not stated),"12.6 µM [rising, partial curve]"
5,COc1ccc(N(CC(O)CN2CCCCC2)S(=O)(=O)c2ccc(C)cc2)cc1 (configuration not stated),"0.00501 µM [falling, full curve, poor fit]"
6,Cc1occc1C(=O)NC(C)C(C)(C)C (configuration not stated),"1.12 µM [rising, full curve, poor fit]"
7,COC(=O)C1=C(NC(C)=O)CCS1,"35.5 µM [falling, single point]"
8,CCc1ccccc1NC(=O)c1nnn(CC(=O)Nc2cccc(C)c2C)c1N,"25.1 µM [rising, single point]"
9,CC1CCc2c(sc3nnn(CC(=O)Nc4cccc(C(F)(F)F)c4)c(=O)c23)C1 (configuration not stated),"0.01 µM [falling, full curve, poor fit]"
10,CC(C)CC(=O)Nc1nc2ccc(S(=O)(=O)N3CCOCC3)cc2s1,"3.16 µM [rising, single point]"
11,CC(C)(C)CC(=O)Nc1nnc(C(F)(F)F)s1,"0.794 µM [falling, full curve]"
12,COc1ccc(/C=C(\NC(=O)c2ccccc2)C(=O)NC2CCCCC2)cc1,"6.31 µM [falling, single point]"
13,O=C(O)c1cccc(NC(=O)c2cccc(NC(=O)C3CCCO3)c2)c1 (configuration not stated),"5.01 µM [rising, single point]"
14,CCNNC(=O)C(O)(c1cccc(C)c1)c1cccc(C)c1,"6.31 µM [falling, single point]"
15,Cc1cc2ncc(-c3ncc(C(F)(F)F)cc3Cl)cn2n1,"35.5 µM [falling, single point]"
16,COC(=O)c1c(NC(=O)CCCOc2cccc(C)c2)sc2c1CCC(C)C2 (configuration not stated),"20 µM [rising, single point]"
17,O=C(CSc1nnnn1-c1ccc2c(c1)CCC2)Nc1ccc2c(c1)OCCO2,"0.0355 µM [falling, full curve]"
18,CCSC(=O)N(CC)CC(=O)Nc1c(CC)cccc1CC,"5.01 µM [falling, single point]"
19,COc1cc(OC)cc(-c2cc(NC(C)=O)n[nH]2)c1,"7.08 µM [falling, single point]"
20,O=C(CNS(=O)(=O)c1ccc(Br)s1)NCc1ccc2c(c1)OCO2,"2 µM [falling, partial curve, poor fit]"
21,CCOC(=O)COc1ccc2cc(C(=O)OCC)c(=O)oc2c1,"0.501 µM [rising, full curve, poor fit]"
22,CCCCCCC(=O)Nc1nnc(CC)s1,"5.01 µM [falling, single point]"
23,c1ccc2[nH]c(CN3CCN(c4ncnc5c4oc4ccccc45)CC3)nc2c1,"31.6 µM [falling, single point]"

row,SMILES,AC50
1,O=C(O)CCCC(=O)Nc1c(F)c(F)c(F)c(F)c1F,"0.501 µM [falling, full curve, poor fit]"
2,COc1ccc(NC(=O)CSc2nc(-c3ccccc3)cc(-c3cc(OC)c(OC)c(OC)c3)c2C#N)c(OC)c1,"22.4 µM [rising, single point]"
3,O=C(NCc1ccco1)c1cc2ccc(O)cc2oc1=O,"5.01 µM [rising, single point]"
4,O=C(CSc1nnc(-c2ccco2)o1)N1CCOCC1,"31.6 µM [falling, single point]"
5,Cn1cc(S(=O)(=O)CC(=O)Nc2ccc3c(c2)OCCO3)c2ccccc21,"0.251 µM [falling, full curve, poor fit]"
6,CCOC(=O)c1cc2sccc2n1Cc1ccccc1,"0.02 µM [falling, full curve, poor fit]"
7,CCOc1cc(CNc2ccc(N(C)C)cc2)cc(Br)c1OCC(=O)NC(C)(C)C,"5.01 µM [falling, partial curve]"
8,CCOC(=O)c1ccc(NC(=O)C2CCN(C(=O)c3ccc(OC)c(OC)c3)CC2)cc1,"6.31 µM [falling, single point]"
9,C=CCn1c(SCC(=O)c2cc(C)n(Cc3cccs3)c2C)nnc1-c1ccncc1,"0.224 µM [falling, full curve, poor fit]"
10,CCNc1c([N+](=O)[O-])ncn1C,"0.0251 µM [falling, full curve, poor fit]"
11,CC(=O)c1ccc(NC(=O)c2ccc(CSc3ccccc3)o2)cc1,"15.8 µM [rising, single point]"
12,Cc1cc(=O)[nH]c2c1cnn2Cc1ccccc1,"0.00631 µM [falling, full curve]"
13,Cc1nn(C)c(C)c1CN(C)C(=O)CCCC(=O)O,"0.126 µM [rising, single point]"
14,O=S(=O)(c1ccc(F)cc1)N1CCN(c2ncnc3c2cnn3-c2ccccc2)CC1,"0.126 µM [rising, full curve, poor fit]"
15,O=C(N/N=C/c1ccc(O)cc1)c1csc2ccccc12,"5.01 µM [rising, single point]"
16,O=C(COC(=O)CCCSc1nc2ccccc2[nH]1)NC(=O)NC1CCCC1,"0.2 µM [rising, full curve, poor fit]"
17,O=C(Nc1ccc(Cl)c(Cl)c1)N(Cc1cccnc1)Cc1ccco1,"6.31 µM [rising, full curve]"
18,O=S(=O)(c1ccc(Cl)cc1)N1CCCC1c1nc(-c2ccc(Cl)cc2)no1 (configuration not stated),"0.00501 µM [falling, full curve, poor fit]"
19,C=C1CSc2nc3ccccc3c(=O)n21,"0.02 µM [falling, full curve]"
20,CCCNc1nc2c(c(=O)n(C)c(=O)n2C)n1CCc1ccccc1,"3.16 µM [rising, single point]"
21,CC(C)(C)OC(=O)NCCC(=O)Oc1ccc2ccc(=O)oc2c1,"25.1 µM [rising, single point]"
